# Source: PubChem BioAssay AID504648 (National Center for Advancing Translational Sciences (NCATS), 2011)
# Among all 390,000 compounds or so, about 610 (0.16%) were called active. The inconclusive results got no clear call from the source; some entries with a clear call stand among them for comparison. The call rests on the fitted dose curve; in most records, active means well fitted inhibition curve with a large enough effect; inconclusive means small, poorly fitted or top-dose-only effect, or effect the other way, or another doubt; inactive means no such curve, though single readings can be large or run the other way. Where the call is inconclusive, the potency comes from a doubtful curve fit.
# Test: Nrf2 qHTS screen for inhibitors: counterscreen for cytotoxicity
# Conditions: A549 ARE-Fluc cells, CellTiter-Fluor viability, 18-24 h; series mostly up to 46 µM
# In short: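 A549 ARE_Fluc cells in 5% FBS OPTI-MEM were exposed to compounds in concentration-response for 18-24 h at 37 deg C. Viability was read by CellTiter-Fluor fluorescence (Ex 405/Em 525) after 30 min, before the luciferase read.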
# Potency means the concentration at half of the fitted maximal effect.
row,SMILES,Potency
1,CC(C)N(CC(=O)Nc1ccc(Cl)cc1C(F)(F)F)C(=O)CCl,"inconclusive: 29.1 µM [falling, single point]"
2,COc1ccc(S[C@@H](CCN2CC[C@H](C)CCC2=O)c2ccccc2)cc1,inactive
3,CN(c1ccc(C(=O)Nc2ccc(F)cc2F)cc1)S(=O)(=O)c1ccccc1,inactive
4,Cc1cc(=O)oc2c(C(=O)/C=C\c3cccs3)c(O)ccc12,"inconclusive: 20.6 µM [falling, single point]"
5,O=C(O)c1ccc2c(c1)C(=O)N([C@H](Cc1ccccc1)C(=O)O)C2=O,inactive
6,CCCCNC(=S)N(C)/N=C/c1ccc(F)cc1,"inconclusive: 20.6 µM [activator, partial curve, poor fit]"
7,CC(=O)Oc1ccc(-c2cc3c(OC(C)=O)cc(OC(C)=O)cc3oc2=O)cc1,"inconclusive: 10.3 µM [activator, partial curve]"
8,Cc1cc(C)c(NC(=S)N(CCc2ccncc2)C(C)C)c(C)c1,inactive
9,COC1C(CO)OC(n2c3c(Cl)cccc3c3c4c(c5c6cccc(Cl)c6[nH]c5c32)C(=O)NC4=O)C(O)C1O (stereo not given),"inconclusive: 1.84 µM [falling, partial curve, poor fit]"
10,COc1ccccc1C(=O)NC(=O)COC(=O)c1ncc(Cl)c(Cl)c1Cl,"inconclusive: 7.31 µM [activator, partial curve, poor fit]"
11,Cc1csc2nc(-c3ccc(NS(=O)(=O)c4cc(F)ccc4F)cc3)cn12,"inconclusive: 7.31 µM [falling, partial curve, poor fit]"
12,CCCCCn1c(=O)[nH]c2cc(C(=O)O)ccc2c1=O,inactive
13,COc1cccc2cc(C(=O)C3=C(O)C(=O)N(CCN(C)C)C3c3ccc(F)cc3)oc12 (stereo not given),inactive
14,CC1CN(C(=O)N2CCC(C(=O)NCCCc3ccccc3)CC2)c2ccccc2O1 (stereo not given),inactive
15,COc1ccccc1NS(=O)(=O)c1cc(C(=O)NCC(c2ccco2)N2CCCCC2)ccc1C (stereo not given),"inconclusive: 18.4 µM [falling, single point]"
16,CN(C)c1nc(N/N=C/c2c[nH]c3ccccc23)nc(N2CCOCC2)n1,"inconclusive: 2.91 µM [activator, full curve]"
17,CCCCCn1c(CCNC(=O)c2cccc(C)c2)nc2ccccc21,inactive
18,CC1CCN(S(=O)(=O)c2ccc(NC(=O)Cn3nnc(-c4ccccc4)n3)cc2)CC1,"inconclusive: 29.1 µM [falling, single point]"
19,Fc1ccc(CNCc2cccc(Br)c2)cc1,"inconclusive: 11.6 µM [activator, partial curve, poor fit]"
20,COc1ccc2cc(/C=N/NC(=O)CSCc3ccc([N+](=O)[O-])cc3)c(Cl)nc2c1,"inconclusive: 25.9 µM [activator, partial curve, poor fit]"
21,CC(C(=O)c1ccc(-c2ccccc2)cc1)[n+]1ccccc1 (stereo not given),"inconclusive: 23.1 µM [falling, partial curve, poor fit]"
22,Cc1ccc(NC2=Nc3ccccc3N3C2=Nc2c(c(C)nn2-c2ccccc2)C3c2ccc(O)c(O)c2)cc1 (stereo not given),"inconclusive: 20.6 µM [falling, partial curve]"

row,SMILES,Potency
1,O=C(N/N=C/c1cccc(F)c1)c1cc(-c2ccco2)nc2ccccc12,"inconclusive: 23.1 µM [falling, partial curve, poor fit]"
2,COC(=O)c1[nH]c2c(c1C)C(=O)CC(c1cccs1)C2 (stereo not given),"inconclusive: 2.91 µM [falling, full curve]"
3,c1coc(Cn2c(-c3ccco3)nc3ccccc32)c1,inactive
4,Cc1ccc(NC(=S)Nc2ccc(OC(F)F)c(Cl)c2)cc1F,inactive
5,CO/N=C/C(=N\Nc1ccc(C)cc1)C(=O)c1ccc(OC)cc1,"inconclusive: 4.11 µM [falling, partial curve, poor fit]"
6,Cc1nn(Cc2ccc(Cl)c(Cl)c2)c(C)c1NC(=O)c1cc(CC(C)C)on1,"inconclusive: 18.4 µM [falling, single point]"
7,Cc1cc(C)n(Cc2ccc(C(=O)Nc3cccc(Br)c3)o2)n1,"inconclusive: 32.6 µM [falling, partial curve, poor fit]"
8,COc1ccccc1OCc1ccc(C(=O)NC(C)c2ccccc2)o1 (stereo not given),"inconclusive: 32.6 µM [falling, partial curve, poor fit]"
9,Cc1ccc(NCc2ccccc2O)cc1,inactive
10,CC1=C(C(=O)OCC2CCCO2)C(c2cccc(C(F)(F)F)c2)C2=C(CC(c3ccco3)CC2=O)N1 (stereo not given),"inconclusive: 16.4 µM [falling, partial curve, poor fit]"
11,Cc1ccc(S(=O)(=O)c2ccc([N+](=O)[O-])cn2)cc1,inactive
12,COc1ccc(NS(=O)(=O)CC(C)C)c(OC)c1,inactive
13,COc1ccc(CN(C(=S)Nc2ccccc2)C2CC(=O)N(c3ccc(Cl)cc3)C2=O)cc1 (stereo not given),"inconclusive: 25.9 µM [falling, partial curve, poor fit]"
14,C=C(c1ccc2nc(NC(=O)OC)[nH]c2c1)c1cccs1,"inconclusive: 13 µM [falling, partial curve, poor fit]"
15,CCN1CCN(Cc2ccc(NC(=O)c3cc(NC(=O)N4CCNC4=O)cc(OC)c3)cc2C(F)(F)F)CC1,"inconclusive: 32.6 µM [activator, partial curve, poor fit]"
16,COc1ccc(CCC(C)Nc2cccc(C)c2)cc1 (stereo not given),"inconclusive: 17.8 µM [activator, partial curve, poor fit]"
17,NC(=O)CC(NC(=O)c1ccccc1)c1ccc(NC2CCCC2)c([N+](=O)[O-])c1 (stereo not given),"inconclusive: 16.4 µM [falling, partial curve, poor fit]"
18,N[C@@H](Cc1cc(I)c(Oc2ccc(O)c(I)c2)c(I)c1)C(=O)O,"inconclusive: 1.64 µM [activator, partial curve, poor fit]"
19,O=C(Nc1nn(Cc2ccc(Cl)cc2)cc1Br)c1ccc(COc2ccccc2Cl)o1,inactive
20,Nc1c(N(C(=O)Nc2ccc(Cl)c(Cl)c2)C2CCCC2)c(=O)[nH]c(=O)n1Cc1ccccc1,"inconclusive: 16.4 µM [falling, single point]"
21,COc1ccc(Cn2cc3c(-c4ccc(F)cc4)nnc-3c3cc(OC)c(OC)cc32)cc1,"inconclusive: 29.1 µM [falling, single point]"
22,COCCCNC(=O)c1sc2ncnc(N3CCc4ccccc4C3)c2c1C,inactive

# Copied from the list.
# Entry of CCN1CCN(Cc2ccc(NC(=O)c3cc(NC(=O)N4CCNC4=O)cc(OC)c3)cc2C(F)(F)F)CC1 under Potency: inconclusive: 32.6 µM [activator, partial curve, poor fit]
# Entry of Cc1cc(C)n(Cc2ccc(C(=O)Nc3cccc(Br)c3)o2)n1 under Potency: inconclusive: 32.6 µM [falling, partial curve, poor fit]

# Next part

row,SMILES,Potency
1,OC(COCc1cccs1)CN1CCN(c2cccc(C(F)(F)F)c2)CC1 (stereo not given),inactive
2,C(=C\c1ccccc1)/CSc1nnc(-c2ccccn2)n1Cc1ccco1,"inconclusive: 32.6 µM [falling, partial curve, poor fit]"
3,O=C1C=C(c2ccc3[nH]ccc3c2)C[C@@H](c2ccc(Cl)cc2)C1,inactive
4,COc1ccc(Cl)cc1S(=O)(=O)NCc1ccc2c(c1)CCN2C(=O)c1cccc(C)c1,"inconclusive: 29.1 µM [falling, single point]"
5,Cc1cccc(-c2nc(C)c(CCNC(=O)C(=O)Nc3ccccc3C#N)s2)c1,inactive
6,CN(c1ccccc1)S(=O)(=O)c1cccc(NC(=O)c2cccc(C#N)c2)c1,"inconclusive: 14.6 µM [falling, partial curve, poor fit]"
7,Cc1cn(C(=O)c2ccccc2)c(=S)n1-c1ccc(Br)cc1,"inconclusive: 29.1 µM [falling, single point]"
8,NC(=O)CC(NC(=O)c1ccc(Br)cc1)c1ccc(NCc2ccc(F)cc2)c([N+](=O)[O-])c1 (stereo not given),"inconclusive: 25.9 µM [falling, single point]"
9,O=C(NC(=S)NC(c1ccccc1)c1ccncc1)c1ccccc1 (stereo not given),"inconclusive: 2.06 µM [activator, partial curve, poor fit]"
10,CCc1nc2ccc(C(=O)NCc3cc(OC)ccc3OC)cc2nc1CC,inactive
11,O=C(Nc1ccccc1Cc1ccccc1)c1ccccc1NS(=O)(=O)c1ccc(Cl)s1,"inconclusive: 16.4 µM [falling, single point]"
12,CCOc1ccc(/C=C/C(=O)Nc2ccc(OC)cc2[N+](=O)[O-])cc1,inactive
13,Cc1ccc(C)c(NS(=O)(=O)c2ccc(OCC(=O)N3CCCC3)cc2)c1,inactive
14,COC(=O)[C@@]12CCCCN1[C@H](c1ccc(-c3cc(C(C)=O)cs3)cc1)[C@H]1C(=O)N(C)C(=O)[C@H]12,"inconclusive: 25.9 µM [falling, partial curve, poor fit]"
15,Cc1ccccc1OCc1nc2ccccc2c(=O)n1/N=C/c1cn[nH]c1-c1ccccc1,"inconclusive: 32.6 µM [falling, partial curve, poor fit]"
16,O=[N+]([O-])c1cc(C(F)(F)F)cc([N+](=O)[O-])c1NCCNC(=S)Nc1cccc(F)c1,"inconclusive: 32.6 µM [falling, partial curve, poor fit]"
17,Cc1ccc2c(CN3CCN(S(=O)(=O)c4ccc(Cl)cc4)CC3)cc(=O)oc2c1C,inactive
18,Cc1ccc(C)c(NC(=O)Nc2cc3c(cc2N2CCCCC2)n(C)c(=O)n3C)c1,inactive
19,COc1ccc(Cn2c(C(=O)O)c(CNCc3ccco3)c3ccc(C)cc32)cc1,"inconclusive: 9.2 µM [falling, partial curve]"
20,CCOC(=O)C1CCN(C(=O)c2ccc3c(c2)NC(=O)/C(=C\c2ccc(C)cc2)S3)CC1,"inconclusive: 29.1 µM [falling, single point]"
21,COc1ccc(N2C(=O)/C(=C3/C=CC=CN3C)SC2=S)cc1,"inconclusive: 13 µM [falling, partial curve]"
